Measured data: PubChem BioAssay AID1259405 (NCATS, 2018)

Purpose: 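Knock-downs that lift recombinant protein yield in hamster ovary cells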 (primary screen)
Cell system: Chinese hamster CHO-K1 ovary cells with stable secreted eGFP expression
Reagent: single siRNA against mouse genes, 0.8 pmol siRNA per well (2 µl of 400 nM stock)
Timing: 3 days
Read-out: 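Per-well intracellular GFP measured by laser scanning cytometry, plus viability from ATP luminescence, each relative to plate median of non-targeting control wells, in %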
Reading the numbers: GFP, % of control: higher = more GFP per well, higher productivity; viability (ATP), % of control: higher = more viable cells (more ATP)
Call rule: 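Called active when intracellular GFP, relative to negative control, is at or above 120%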
Shown is an unselected part of about 50,000 deposited reagents. In the full data, about 4,000 (8%) got an active call. 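Mouse siRNA library applied to hamster cells; one well for each siRNA.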 Reagents against one gene are numbered here.

target gene,reagent,"GFP, % of control","viability (ATP), % of control",activity call
Vmn1r87,1,112,75.2,inactive
Vmn1r87,2,106,72.3,inactive
Vmn1r87,3,92.3,98.5,inactive
Ddx42,1,73.9,73.2,inactive
Ddx42,2,93.1,67.5,inactive
Ddx42,3,89.4,87.2,inactive
Letm1,1,67.2,101,inactive
Letm1,2,98.7,63.4,inactive
Trib3,1,91.3,83.3,inactive
Trib3,2,86.5,88,inactive
Trib3,3,64.8,77.3,inactive
Scube3,1,81.7,83.7,inactive
Scube3,2,225,87.5,active
Scube3,3,105,45.3,inactive
Grb10,1,40.2,18.8,inactive
Grb10,2,62,61.7,inactive
Grb10,3,96.5,108,inactive
Or1e1,1,71.8,63.8,inactive
Or1e1,2,93.9,77,inactive
Or1e1,3,77.5,41.7,inactive
Alkbh8,1,84.9,110,inactive
Alkbh8,2,130,101,active
Smim8,1,63.7,71.9,inactive
Smim8,2,30.9,34,inactive
Smim8,3,78.7,80.4,inactive
Vps4b,1,35.3,53.8,inactive
Vps4b,2,102,64.9,inactive
Vps4b,3,83.9,81.8,inactive

Part of the list above in another layout.
target gene | reagent | GFP, % of control | viability (ATP), % of control | activity call
Scube3 | 3 | 105 | 45.3 | inactive
Grb10 | 1 | 40.2 | 18.8 | inactive
Grb10 | 2 | 62 | 61.7 | inactive
Grb10 | 3 | 96.5 | 108 | inactive
Or1e1 | 1 | 71.8 | 63.8 | inactive
Or1e1 | 2 | 93.9 | 77 | inactive
Or1e1 | 3 | 77.5 | 41.7 | inactive
Alkbh8 | 1 | 84.9 | 110 | inactive

Continued.
target gene,reagent,"GFP, % of control","viability (ATP), % of control",activity call
Siah2,1,76,81,inactive
Siah2,2,84.3,69.5,inactive
Siah2,3,52.7,83.8,inactive
Frmd4b,1,49.8,51.8,inactive
Frmd4b,2,63,76.6,inactive
Frmd4b,3,66.7,77.6,inactive
Mphosph10,1,69.3,60.4,inactive
Mphosph10,2,101,82.8,inactive
Mphosph10,3,32,15.2,inactive
Oma1,1,86.1,85,inactive
Oma1,2,73.2,79.5,inactive
Rab27a,1,142,93.9,active
Rab27a,2,29.3,61.3,inactive
Rab27a,3,54.3,57,inactive
Eid2,1,81.3,144,inactive
Eid2,2,81.4,67.6,inactive
Or52s19,1,78.4,64,inactive
Or52s19,2,82.4,41.8,inactive
Or52s19,3,45.2,82,inactive
Slc9c1,1,98.9,75.7,inactive
Slc9c1,2,80.8,53.2,inactive
Slc9c1,3,91.9,82.7,inactive
Akr7a5,1,90.1,57,inactive
Akr7a5,2,102,63,inactive
Akr7a5,3,88.7,76.7,inactive
Micos13,1,104,103,inactive
Micos13,2,41.8,51.5,inactive
Micos13,3,85.1,71,inactive
Eef1b2,1,61.7,80.2,inactive
Eef1b2,2,70.8,65.4,inactive
Eef1b2,3,87,86.7,inactive
Plxna3,1,108,106,inactive
Gdap2,1,115,160,inactive
Gdap2,2,79.3,87.6,inactive
Klb,1,91,76.7,inactive
Klb,2,61.1,96.3,inactive
Klb,3,59.2,45.2,inactive
Glt28d2,1,87.3,86,inactive
Glt28d2,2,129,89.3,active
Glt28d2,3,93.2,101,inactive
Tbc1d14,1,104,74.8,inactive
Tbc1d14,2,51.4,54,inactive
Tbc1d14,3,74.8,63.1,inactive
Or4c122,1,37.8,43.6,inactive
Or4c122,2,108,64.1,inactive
Or4c122,3,93.8,105,inactive
Mrgpra5,1,21.7,45.2,inactive
Mrgpra5,2,65.9,62.9,inactive
Mrgpra5,3,104,70.9,inactive
Cmya5,1,51.6,105,inactive
Cmya5,2,34.6,52.9,inactive
Cmya5,3,64,118,inactive
Mettl25b,1,42.7,40.9,inactive
Mettl25b,2,75.9,69.1,inactive
Mettl25b,3,146,147,active
Mettl25b,4,83.3,87,inactive
Mettl25b,5,56.8,77.3,inactive
Mettl25b,6,68.9,86.8,inactive
